From PubChem BioAssay AID1117319 (Southern Research Institute, 2015)
Out of some 260,000 compounds screened, about 1,500 (0.58%) were called active. Only results without a clear call are listed here; the source files them as inconclusive.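 Rule for the calls: active = inhibition above a set limit at one or more doses, reproduced on every date tested; inconclusive = results disagree between test dates, or hit never tested in dose response; inactive = the rest.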

Molecular target: Virion infectivity factor (Human immunodeficiency virus type 1 group M subtype B (isolate BH10)) + Virion infectivity factor (Human immunodeficiency virus type 1 group M subtype B (isolate BRU/LAI)) + Virion infectivity factor (Human immunodeficiency virus type 1 group M subtype B (isolate PCV12)) + Virion infectivity factor (Human immunodeficiency virus type 1 group M subtype B (isolate HXB2)) + DNA dC->dU-editing enzyme APOBEC-3G (Homo sapiens) (UniProt P69720+P69721+P69722+P69723+Q9HC16)
Assay: HIV-1 Vif–A3G interaction blockers – biochemical, TR-FRET, GST-Vif 1-94, biotin-A3G peptide, dose response retest, primary screen (AID 1117319);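 note: Vif residues 1-94 fused to GST binding biotinylated APOBEC3G peptide 110-148; 0% = full assay without inhibitor and 100% = GST in place of GST-Vif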
Conditions: TR-FRET GST-Vif / biotin-A3G peptide binding; active compounds read high

SMILES | inhibition
N#Cc1ccc(C(=O)NCC2(N3CCCCC3)CCCCC2)cc1 | inconclusive: 59.2%
O=C(OC1CN2CCC1CC2)C1c2ccccc2C=Cc2ccccc21 (centres undefined) | inconclusive: 37.8%
O=C(NCC1(N2CCOCC2)CCCCC1)c1cc2ccccc2o1 | inconclusive: 60.3%
CN(C)c1cccc(C(=O)NCC2(N3CCCCC3)CCCCC2)c1 | inconclusive: 38.3%
